Measurements reported in PubChem BioAssay AID686937 (Drosophila RNAi Screening Center, 2013)
In all, the deposit lists about 23,000 reagents; below is an unselected part of those with a known target gene and a result. 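Reduced-secretion tags in replicate 1 do not always agree with the z-scores; no criterion for assigning the tags was given.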 Names joined by + are all predicted targets of the reagent. Further read-outs or replicates are left out here. Not given: the amount of reagent.

Assay: 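Genes whose loss weakens secretory pathway function in fly cells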 (primary screen)
Cell system: Drosophila S2 cells expressing secreted horseradish peroxidase
Reagents: long dsRNA against Drosophila genes
Time to read-out: about 5.5 days (5 days dsRNA, then 12 h reporter induction)
Challenge: reporter expression induced after 5 days of dsRNA, read 12 h later; inducer not stated
Measured: 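After 5 days of dsRNA and 12 h of reporter induction, medium peroxidase read by chemiluminescence and scored as per-plate z-score; higher values mean more reporter released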
Direction: z-score: higher = more reporter secreted into medium

target gene | dsRNA | z-score, replicate 1 | z-score, replicate 2 | z-score, replicate 3 | z-score, replicate 4
CG14102 | DRSC10103 | 0.3 | 0.33 | – | –
CG42855 | DRSC06161 | 0.17 | 0.21 | – | –
amd (alpha methyl dopa-resistant) | DRSC02608 | 0.47 | 0.48 | -0.4 | -0.1
amd (alpha methyl dopa-resistant) | DRSC03483 | 0.2 | 0.21 | – | –
18w (18 wheeler) | DRSC05029 | 0.38 | 0.3 | – | –
CG9784 | DRSC20210 | 0.23 | 0.21 | – | –
prom (prominin) | DRSC04684 | -0.1 | -0.3 | – | –
prom (prominin) | DRSC21463 | 1.2 | 1.04 | – | –
prom (prominin) | DRSC22088 | 0.45 | -0.02 | – | –
TotF (Turandot F) | DRSC02305 | 0.45 | 0.18 | – | –
Ugt35C1 (UDP-glycosyltransferase family 35 member C1) | DRSC16080 | 0.26 | 0.34 | – | –
COX6AL (Cytochrome c oxidase subunit 6A-like) | DRSC21454 | -0.36 | 0.11 | – | –
Vps16A (Vacuolar protein sorting 16A) | DRSC16422 | 0.2 | -0.03 | – | –
CG30391 | DRSC21572 | -0.36 | 1.2 | – | –
Hrd3 (HMG-coA reductase degradation 3) | DRSC14156 | -0.06 | 0.19 | – | –
dgt4 (dim gamma-tubulin 4) | DRSC18659 | 0.26 | 0.37 | – | –
Elp1 (Elongator complex protein 1) | DRSC14250 | -0.14 | -0.4 | – | –
CG32686 | DRSC17645 | -0.53 | 0.23 | – | –
Atat (alpha-tubulin acetylase) | DRSC10392 | 0.19 | 0.11 | – | –
Gnmt (Glycine N-methyltransferase) | DRSC15987 | 0.16 | -0.27 | – | –
CG14662 + asRNA:CR43478 | DRSC12248 | 0.03 | 0.38 | – | –
Pbgs (Porphobilinogen synthase) | DRSC09718 | 0.38 | 0.41 | – | –
Phae1 (Phaedra 1) | DRSC02554 | 0.44 | 0.64 | – | –
CG14668 | DRSC12254 | 0.36 | 0.08 | – | –
Hsp70Bb + Hsp70Bbb | DRSC15885 | 0.32 | 0.39 | -0.4 | -0.32
SrpRalpha (Signal recognition particle receptor alpha) | DRSC20251 | -1.63 | -1.32 | – | –
topi (matotopetli) | DRSC16431 | 0.24 | 0.5 | – | –
Prosalpha6 (Proteasome alpha6 subunit) | DRSC03401 | -6.34 | -6.61 | – | –
lic (licorne) | DRSC20347 | 0.03 | -0.49 | – | –
Btnd (Biotinidase) | DRSC18316 | 0.36 | 0.22 | – | –
CG31819 | DRSC01532 | 0.37 | 0.47 | – | –
CG14042 + SP555 | DRSC02367 | 0.37 | 0.35 | – | –
CG14042 + SP555 | DRSC03428 | 0.33 | 0.09 | – | –
Tango14 (Transport and Golgi organization 14) | DRSC00667 | -1.75 | -1.29 | – | –
CG31294 | DRSC22217 | -0.23 | -0.07 | – | –
ATPsynD (ATP synthase, subunit D) | DRSC14093 | -0.19 | -1.1 | – | –
Imp (IGF-II mRNA-binding protein) | DRSC18857 | 0.59 | 0.56 | – | –
Imp (IGF-II mRNA-binding protein) | DRSC18861 | 0.17 | 0.87 | – | –
Imp (IGF-II mRNA-binding protein) | DRSC20255 | 0.42 | 0.22 | – | –
Imp (IGF-II mRNA-binding protein) | DRSC21907 | 0.17 | -0.02 | – | –
CG15446 | DRSC20518 | 0.17 | 0.02 | – | –
Obp19d (Odorant-binding protein 19d) | DRSC20569 | 0.1 | 0.29 | – | –
Sema1b (Semaphorin 1b) | DRSC07550 | 0.48 | 0.33 | – | –
CG4962 | DRSC10464 | 0.5 | 0.1 | – | –
CG6432 | DRSC16039 | 0.1 | 0.33 | – | –
spidey | DRSC17932 | 0.11 | 0.23 | – | –
CG2712 | DRSC18589 | 0.46 | 0.25 | – | –
CG13318 | DRSC14581 | 0.41 | 0.38 | – | –
CG13248 | DRSC11696 | 0.43 | 0.42 | – | –
CG13361 | DRSC17896 | 0.38 | 0.38 | – | –
CG11885 | DRSC00329 | 0.71 | 0.63 | – | –
CG9948 | DRSC11104 | -0.18 | 0.04 | – | –
tomboy40 | DRSC04918 | -0.01 | 0.09 | – | –
rnh1 (ribonuclease H1) | DRSC07673 | 0.01 | -0.17 | – | –
Pex14 (Peroxin 14) | DRSC11754 | 0.48 | 0.53 | – | –
CG31975 + ovm | DRSC00323 | -0.05 | -0.3 | – | –

No new results follow: entries from further up.
target gene | dsRNA | z-score, replicate 1 | z-score, replicate 2 | z-score, replicate 3 | z-score, replicate 4
Sema1b (Semaphorin 1b) | DRSC07550 | 0.48 | 0.33 | – | –
CG4962 | DRSC10464 | 0.5 | 0.1 | – | –
CG6432 | DRSC16039 | 0.1 | 0.33 | – | –
spidey | DRSC17932 | 0.11 | 0.23 | – | –
CG2712 | DRSC18589 | 0.46 | 0.25 | – | –
